PMC9574752
No constants are given. Whether binding was seen depends on the method and setting. Binding seen in cells or lysates may run through a third protein. For some assays here: A result given as binding can be weak or reduced; the word gives no strength.

Sequences of proteins named here, by UniProt entry; tags and fusion partners are left off. A change or cut given only in a name is not applied to a line headed by its entry.
UniProt Q8N6M0: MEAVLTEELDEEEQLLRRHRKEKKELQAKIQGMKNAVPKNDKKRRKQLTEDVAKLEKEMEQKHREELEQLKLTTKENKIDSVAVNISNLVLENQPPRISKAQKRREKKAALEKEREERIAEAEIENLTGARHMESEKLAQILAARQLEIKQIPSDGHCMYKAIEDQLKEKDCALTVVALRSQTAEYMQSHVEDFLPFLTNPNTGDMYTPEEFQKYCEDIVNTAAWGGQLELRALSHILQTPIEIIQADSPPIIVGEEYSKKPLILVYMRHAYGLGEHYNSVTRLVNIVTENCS

Experiments:
[1] = molecular target: FLAG-OTUD6B isoform 2 (IF2); experiment: co-IP; FLAG-tagged proteins expressed in HEK293T; whole cell extract (150 mM NaCl, 50 mM Tris-HCl pH 7.5, 5 mM MgCl2, 1 mM EDTA, 0.1% NP-40, 5% glycerol) on FLAG-M2 agarose at 4°C for 1.5-2 h; immunoblot
GST-OTUD6B = GST-OTUD6B (UniProt Q8N6M0); experiment: pull-down; bead-bound purified GST-OTUD6B or GST alone incubated with clarified HEK293T lysate for 1 h at 4°C, four washes with lysis buffer; immunoblot; only the target purified

B1: LIN28B, endogenous in HEK293T cells (protein, UniProt Q6ZN17 1-250)
chain: MAEGGASKGGGEEPGKLPEPAEEESQVLRGTGHCKWFNVRMGFGFISMINREGSPLDIPVDVFVHQSKLFMEGFRSLKEGEPVEFTFKKSSKGLESIRVTGPGGSPCLGSERRPKGKTLQKRKPKGDRCYNCGGLDHHAKECSLPPQPKKCHYCQSIMHMVANCPHKNVAQPPASSQGRQEAESQPCTSTLPREVGGGHGCTSPPFPQEARAEISERSGRSPQEASSTKSSIAPEEQSKKGPSVQKRKKT
What does the source list for B1?
binding [1]: no binding; binding (GST-OTUD6B): binds
